Source: US20250002954A1, “Novel Compound, Use Thereof, and Method for Producing Same, and Compound-Containing Composition, Method for Producing 4-Trehalosamine, and Microorganism” (Microbial Chemistry Research Foundation, priority 2021, published 2025)
Some of these results come from one statement about several compounds together.

Tested on: Mycobacterium smegmatis mc^2 (ATCC 700084)
Experiment: Evaluation of mycobacterium-protective activity in freeze-dried condition
Assay type: cell-based
Settings: 6% (final concentration 3%) added
Protocol: Using test samples 1 to 5 containing mycobacterium prepared in the following manner, microorganism-protective activity with trehalose or 4-trehalosamine in a freeze-dried condition was evaluated.
Frozen stock of mycobacterium ([…] Mycobacterium smegmatis mc^2 (American Type Culture Collection (ATCC) 700084)) was inoculated in 10 mL of Middlebrook 7H9 culture medium (manufactured by Becton, Dickinson and Company) and cultured at 37° C. for 72 hours while shaking it at 220 rpm. After culture, it was centrifuged at 3,000×g for 5 minutes, washed once with 10 mL of water, and then suspended in 10 mL of water, thus obtaining mycobacterium suspension. 50 μL of water was added to and mixed with 50 μL of this mycobacterium suspension, and the mixture was left to stand at 4° C. for 20 hours, preparing control (NF).
After mycobacterium suspension was prepared in a similar manner to test sample 1, 50 μL of 6% aqueous solution of trehalose was added to and mixed with 50 µL of the mycobacterium suspension, and the mixture was frozen at −80° C. for 10 minutes. […]
Wells in which the number of colonies was measurable were selected and the numbers (relative numbers) of live bacterial cells per well on test samples 1, 2, 4, and 5 when the number of live bacterial cells per well on test sample 3 (FD) was “1” were calculated in consideration of the dilution concentrations of those test samples.

`N[C@H]1[C@H](O)[C@@H](O)[C@@H](O[C@H]2O[C@H](CO)[C@@H](O)[C@H](O)[C@H]2O)O[C@@H]1CO` [4-trehalosamine] was tested, and the “improvement of viability after freeze drying” value was no less than 10 times.
With `OC[C@H]1O[C@H](O[C@H]2O[C@H](CO)[C@@H](O)[C@H](O)[C@H]2O)[C@H](O)[C@@H](O)[C@@H]1O` [trehalose, reference compound] the “improvement of viability after freeze drying” value was no less than 10 times.
